Data as given in article PMC6379987.
These are yes or no findings as the source states them, for the method shown. In cells and extracts the contact can be indirect. Some binding calls cover weakened binding; strength is not graded here.

Sequences of proteins named here, by UniProt entry; tags and fusion partners are left off.
UniProt Q62120: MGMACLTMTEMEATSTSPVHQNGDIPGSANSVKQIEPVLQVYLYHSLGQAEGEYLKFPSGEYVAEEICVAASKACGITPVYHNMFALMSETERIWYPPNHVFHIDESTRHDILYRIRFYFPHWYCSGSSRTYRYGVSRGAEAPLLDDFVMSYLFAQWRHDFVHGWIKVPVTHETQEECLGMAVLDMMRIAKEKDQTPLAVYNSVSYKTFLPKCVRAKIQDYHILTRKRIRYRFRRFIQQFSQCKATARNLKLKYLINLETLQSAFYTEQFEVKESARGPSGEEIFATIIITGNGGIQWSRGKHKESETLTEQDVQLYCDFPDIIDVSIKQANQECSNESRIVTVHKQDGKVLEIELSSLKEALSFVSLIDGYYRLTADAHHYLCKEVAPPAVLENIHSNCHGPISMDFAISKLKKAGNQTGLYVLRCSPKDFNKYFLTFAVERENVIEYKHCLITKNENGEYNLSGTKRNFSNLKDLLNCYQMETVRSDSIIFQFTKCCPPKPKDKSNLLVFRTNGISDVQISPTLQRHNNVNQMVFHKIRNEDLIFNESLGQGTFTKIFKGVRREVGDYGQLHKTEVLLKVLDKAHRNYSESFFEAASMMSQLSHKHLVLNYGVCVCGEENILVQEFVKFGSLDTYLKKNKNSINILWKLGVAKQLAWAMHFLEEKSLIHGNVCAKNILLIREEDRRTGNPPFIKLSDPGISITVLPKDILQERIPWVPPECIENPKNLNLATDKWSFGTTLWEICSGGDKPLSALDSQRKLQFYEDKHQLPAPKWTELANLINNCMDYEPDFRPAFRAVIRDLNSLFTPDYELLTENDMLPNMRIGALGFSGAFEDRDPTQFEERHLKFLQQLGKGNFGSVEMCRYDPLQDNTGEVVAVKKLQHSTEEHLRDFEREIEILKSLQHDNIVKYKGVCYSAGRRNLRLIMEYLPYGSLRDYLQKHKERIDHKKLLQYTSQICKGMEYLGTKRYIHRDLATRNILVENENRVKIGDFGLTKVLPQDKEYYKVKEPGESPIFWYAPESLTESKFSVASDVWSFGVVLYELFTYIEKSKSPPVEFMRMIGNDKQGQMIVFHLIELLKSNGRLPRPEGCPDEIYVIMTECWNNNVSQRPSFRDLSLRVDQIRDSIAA

Columns and labels:
[1] = biological target: HA-tagged PDGFRβ (UniProt P09619); assay: co-IP; HEK293T transfected with HA-PDGFRβ and mJAK2 wildtype or kinase dead, 24 h, then MG132, pepstatin and leupeptin for 4 h; lysed in IP buffer (50 mM Tris-HCl pH 7.4, 300 mM NaCl, 5 mM EDTA, 1% Nonidet P40); immunoprecipitated with HA-specific antibody overnight at 4 °C, Protein A/G Dynabeads; western blot
[2] = biological target: mJAK2 wildtype (UniProt Q62120); assay: co-IP; HEK293T transfected with HA-PDGFRβ and mJAK2 wildtype or kinase dead, 24 h, then MG132, pepstatin and leupeptin for 4 h; lysed in IP buffer (50 mM Tris-HCl pH 7.4, 300 mM NaCl, 5 mM EDTA, 1% Nonidet P40); immunoprecipitated with JAK2-specific antibody overnight at 4 °C, Protein A/G Dynabeads; western blot

binding [1]	binding [2]	Substance
binds		mJAK2 wildtype (from UniProt Q62120 1-1132) (enzyme)
	binds	HA-tagged PDGFRβ (from UniProt P09619 33-1106) (receptor)
